# In PubChem BioAssay AID2685 (National Center for Advancing Translational Sciences (NCATS), 2010):
# The whole screen tested about 320,000 compounds, of which about 2,100 (0.66%) were called active. This list was built around the results that the source calls inconclusive (neither active nor inactive); the mix of calls is not that of the screen. Calls come from the whole dose curve; as a rule, active = well fitted inhibition curve with a large enough effect in the signal ratio, with a control signal flat (not every such curve was filed as active); inconclusive = small, poorly fitted or top-dose-only effect, or effect the other way, or a change in a side signal; inactive = flat fitted curve, though single readings scatter; the % refers to the signal ratio. Potencies beside an inconclusive call are fits to weak or partial responses and may not hold up.
# Test: qHTS Assay for Lipid Storage Modulators in Drosophila S3 Cells
# Settings: BODIPY lipid droplet fluorescence, 18-24 h, cells fed with added oleic acid; lipid storage change, negative = inhibition: at 46.1 µM (top of the series) unless noted
# Outline: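 Drosophila S3 cells loaded with oleic acid (400 uM, as added) and compounds at several concentrations; lipid droplets imaged by 488-nm laser-scanning cytometry, 500–530 nm intensity and object ratio to cell channel. Percent activity normalized to 20 uM Triacsin C.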
# % is set by controls: 0 for no effect and ±100 for the full control effect; potency is the fitted concentration of half-maximal effect.
SMILES,Potency,"lipid storage change, negative = inhibition"
CCc1nc2ccc(C(=O)N3CCN(c4ccccc4F)CC3)cc2nc1CC,"inconclusive: 23.1 µM [activator, single point]",–
CC(C)c1ccc(/C=C2\SC(=O)N(CC(=O)NCCCn3ccnc3)C2=O)cc1,–,inconclusive: 338%
CC(C)c1ccc(NC(=O)CSc2nc3c(c(=O)[nH]2)CCC3)cc1,–,inconclusive: 0.263%
O=C(Nc1ccccc1N1CCCCC1)c1ccc(F)c(S(=O)(=O)N2CCOCC2)c1,–,inconclusive
CC(C)Cc1nnc(NC(=O)CN2C(=O)c3ccccc3C2=O)s1,–,inconclusive: -7.9%
O=C(c1ccc(S(=O)(=O)N2CCOCC2)cc1)N(c1ccccn1)C1CCCCC1,–,inconclusive: -9.47%
CCN(CC(=O)NCc1cccs1)CC(=O)Nc1ccccc1C,"inconclusive: 0.116 µM [activator, full curve, poor fit]",–
Cc1ccc(NC(=O)CN(Cc2ccco2)Cc2ccccc2O)cc1C,–,inconclusive: -100%
O=C(Nc1ccc(F)cc1)C1CCCN1S(=O)(=O)c1ccc(Br)cc1 (stereo unspecified),–,inconclusive: -25.8%
COC(=O)c1ccc(CSc2ncnc3c2oc2ccccc23)o1,–,inconclusive: 23.7%
COc1ccc(NS(=O)(=O)c2cccc(N/C(=N\S(=O)(=O)c3ccccc3)c3ccc(F)cc3)c2)cc1,–,inconclusive: -51.9%
COc1ccc(C(=O)CSc2nnc(COc3ccccc3)n2Cc2ccco2)cc1,"inconclusive: 0.731 µM [falling, full curve, poor fit]",–
Cc1cc(N2CC(=O)N(CCc3ccccc3)C(=O)C2)n2ncnc2n1,–,inconclusive: 13.7%
O=C(Nc1ccccc1C(=O)N1CCCCC1)c1cc(F)c(F)cc1Cl,–,inconclusive: 6.03%
Cc1ccc(C)c(N2CC(C(=O)Nc3cc(C)on3)CC2=O)c1 (stereo unspecified),–,inconclusive: 36.5%
CCN1C2OC3OC4C(OC3OC2N(CC)S1(=O)=O)N(CC)S(=O)(=O)N4CC (stereo unspecified),–,inconclusive: 13.8%
O=C(Nc1c(F)c(F)c(F)c(F)c1F)NC1CCCCC1,–,inconclusive: -1.37%
NC(=O)CC(NC(=O)c1ccccc1)c1ccc(NCc2ccccn2)c([N+](=O)[O-])c1 (stereo unspecified),"inconclusive: 0.461 µM [falling, partial curve, poor fit]",–
CC(C)(C)c1csc(NC(=O)CS(=O)(=O)c2ccccc2)n1,–,inconclusive: 310%
CC(C)Cc1nc2oc3c(NCC(C)O)ncnc3c2c2c1CCCC2 (stereo unspecified),–,inconclusive: -21.1%
COc1cc(NC(=O)c2ccc(COc3ccccc3Br)o2)cc(OC)c1OC,–,inconclusive: 14.1%
Cc1cc(SCC(=O)OCC(=O)N2CCCC2=O)c(C)cc1Br,–,inconclusive
CC(C)(C)c1cnnn1-c1ccc(NC(=O)c2ccc(Br)o2)cc1,–,inconclusive: -13.7%
O=C(c1ccc(S(=O)(=O)N2CCOCC2)cc1)N1CCCc2ccccc21,–,inconclusive: 44.4%
CN(C)c1ccc(/C=C/c2nnnn2-c2ccccc2)cc1,–,inconclusive: 0.707%
Cc1ccc(NC(=O)CSc2nnc(-c3cc(C)[nH]n3)n2N)cc1,"inconclusive: 23.1 µM [activator, partial curve]",–

SMILES,Potency,"lipid storage change, negative = inhibition"
O=C(CNC(=O)c1ccc2ccccc2c1)OCC(=O)N1CCN(S(=O)(=O)c2ccc3ccccc3c2)CC1,–,inconclusive: -0.883%
CCCC(=O)Nc1nnc(CCOC)s1,–,inconclusive: -6.58%
CCOc1ccc(C(C)=O)cc1CSC(=N)N,–,inactive: 3.16%
COc1ccccc1NC(=O)CCC(=O)OCc1cccc([N+](=O)[O-])c1,–,inconclusive: 48.3%
O=C(/C=C/c1c(F)cccc1Cl)c1ccc(F)cc1,"inconclusive: 7.31 µM [falling, partial curve, poor fit]",–
CN(Cc1ccccc1)c1nc2c(c(=O)[nH]c(=O)n2C)n1CCOc1ccccc1,"inconclusive: 0.82 µM [activator, full curve]",–
O=C(CN1C(=O)COc2ccccc21)N(Cc1ccc2c(c1)OCO2)CC1CCCO1 (stereo unspecified),–,inconclusive: 20.1%
Cc1cc(NC(=O)Cc2ccccc2)ccc1NC(=O)c1cccs1,–,inconclusive: 20%
COC(=O)[C@@H](NC(=O)Nc1ccc(C(C)=O)cc1)C(C)C,–,inconclusive: -8.73%
O=C(NCC1CCCCC1)c1cc([N+](=O)[O-])ccc1Cl,–,inconclusive: -5.71%
COC(=O)c1cc(Br)c(=O)n(-c2ccccc2OC)c1,–,inconclusive: -24.6%
O=C(CCCCCn1c(=S)[nH]c2cc3c(cc2c1=O)OCO3)N1CCN(C2CCCCC2)CC1,–,inconclusive: -2.82%
O=C(NCCc1ccccc1)C1CCN(S(=O)(=O)c2ccc(Br)s2)CC1,–,inconclusive: 21.8%
Cc1ccc(NC(=O)CSc2ccccc2)cc1S(=O)(=O)N1CCOCC1,"inconclusive: 4.11 µM [falling, single point]",–
C[C@@H]1CCC(=O)N(CC[C@H](N=[N+]=[N-])c2ccccc2)CC1,–,inconclusive: -106%
CCOc1ccccc1NC(=O)C1CCCN(S(=O)(=O)c2ccccc2)C1 (stereo unspecified),"inconclusive: 25.9 µM [falling, single point]",–
COc1ccc(S(=O)(=O)N(Cc2nc3ccccc3c(=O)[nH]2)C2CCCC2)cc1,"inconclusive: 8.2 µM [activator, partial curve]",–
Cc1ccc(S(=O)(=O)N2CCC[C@H]2C(=O)OCCN2C(=O)c3ccccc3C2=O)cc1,–,inconclusive
CC1CCCCN1C(=O)COC(=O)c1cc(-c2cccs2)nn1-c1ccccc1 (stereo unspecified),–,inconclusive: 15.5%
CCN(CC)c1ccc(C=Nc2ccc(OC)c(S(=O)(=O)N3CCOCC3)c2)c(O)c1,–,inconclusive: -33.2%
Cc1cnc(C(=O)OCc2ccc(Br)cc2F)cn1,–,inconclusive: 9.11%
COc1ccccc1NC(=O)c1cc2cc(Br)ccc2cc1O,"inconclusive: 29.1 µM [falling, single point]",–
Cc1cccc(C)c1NC(=O)C(=O)NCC1CCCN1S(=O)(=O)c1cccs1 (stereo unspecified),–,inconclusive: -0.239%
Cn1c(SCC(=O)N2CCCC2)nnc1-c1cccs1,"inconclusive: 29.1 µM [activator, partial curve]",–
O=C(NCCCN1CCOCC1)c1cc(-c2ccc(Cl)c(Cl)c2)on1,"inconclusive: 29.1 µM [activator, single point]",–
CC(C)C(NS(=O)(=O)c1ccccc1)C(=O)N1CCN(C(=O)c2ccco2)CC1 (stereo unspecified),"inconclusive: 29.1 µM [activator, single point]",–

SMILES,Potency,"lipid storage change, negative = inhibition"
CC(=O)Nc1ccc(NC(=O)CC2(CC(=O)N3CCOCC3)CCCC2)cc1,"inconclusive: 6.51 µM [activator, single point]",–
O=C(NCCc1ccccn1)c1ccc(OC2CCN(Cc3ccccn3)CC2)cc1,–,inconclusive: 45.4%
O=C(OC(C(=O)NCC1CCCO1)c1ccc(F)cc1)c1ccco1 (stereo unspecified),"inconclusive: 0.731 µM [falling, full curve]",–
COC1CCN(Cc2c(C(=O)N3C[C@@H](C)O[C@@H](C)C3)nc3ccc(Cl)cn23)CC1,–,inconclusive: -20.1%
CNC(=O)/C(=C\c1ccc([N+](=O)[O-])cc1)NC(C)=O,–,inconclusive: -21.3%
Cc1[nH]c2ccccc2c1N=Nc1cccc(C(=O)O)c1,–,inconclusive: -9.11%
Cc1ccc(N(C(=O)Cn2nnc3ccccc32)C(C(=O)NC2CCCCC2)c2cn(C)nc2C)cc1 (stereo unspecified),–,inconclusive: 8.51%
NC(=O)N1CCCC1C(=O)Nc1ccc(Cl)c(Cl)c1 (stereo unspecified),–,inconclusive: 16.1%
CC1(C)CC(CC(=O)O)(c2ccccc2)CCO1 (stereo unspecified),"inconclusive: 29.1 µM [falling, single point]",–
Cc1cc(C)cc(Nc2cc(=O)n(C3CCCCC3)c(=O)[nH]2)c1,–,inconclusive: 7.61%
O=C(CSc1nnnn1-c1ccc(F)cc1)NC1CCCCC1,–,inconclusive: -0.548%
CC(C)Cn1c(N)c(C(=O)COC(=O)CCNS(=O)(=O)c2ccccc2)c(=O)n(C)c1=O,"inconclusive: 6.51 µM [rising, single point]",–
O=C(COC(=O)c1ccc(Cl)c(Cl)c1)Nc1cccnc1Cl,–,inconclusive: -9.64%
Cc1ccc2nc(C)cc(Nc3ccc4c(c3)OCCO4)c2c1,"inconclusive: 6.51 µM [activator, single point]",–
c1ccc(COc2cccc(CN3CCN(c4ccccn4)CC3)c2)cc1,"inconclusive: 29.1 µM [falling, single point]",–
COc1ccc(CCN(C)C2CCCN(C(=O)CCSC)C2)cc1OC (stereo unspecified),–,inconclusive: 32.8%
COc1cc(/C=N/N(C)c2ccccc2)cc(Cl)c1O,–,inconclusive: 173%
O=C(c1ccc(-n2nc(C(F)(F)F)c3c2CCCC3)cc1)N1CCOCC1,–,inconclusive: 23.6% [at 9.22 µM]
Cc1cccc(NS(=O)(=O)c2nnc(NC(=O)c3ccc(Cl)cc3)s2)c1,–,inconclusive: -7.82%
Cc1ccccc1NC(=O)Nc1ccc2c(c1)CCC2,"inconclusive: 29.1 µM [activator, partial curve]",–
Cc1ccsc1C(=O)NCCc1ccco1,"inconclusive: 1.46 µM [activator, single point]",–
O=S(=O)(c1ccc2ccccc2c1)N1CCN(S(=O)(=O)N2CCCCC2)CC1,"inconclusive: 1.3 µM [falling, partial curve]",–
CNC(=S)NNC(=O)c1ccc2c(c1)OCO2,"inconclusive: 29.1 µM [rising, single point]",–
Cc1ccc(S(=O)(=O)N2CCCC(C(=O)NC3CC3)C2)cc1 (stereo unspecified),–,inconclusive: 11%

# A few values from the entries so far.
# Under lipid storage change, negative = inhibition, NC(=O)N1CCCC1C(=O)Nc1ccc(Cl)c(Cl)c1 (stereo unspecified) is entered as inconclusive: 16.1%
# Under lipid storage change, negative = inhibition, Cc1ccc(N(C(=O)Cn2nnc3ccccc32)C(C(=O)NC2CCCCC2)c2cn(C)nc2C)cc1 (stereo unspecified) is entered as inconclusive: 8.51%
